Source: PubChem BioAssay AID743454 (Peter MacCallum Cancer Centre, 2014)
Aim: 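Search for knock-downs that restore vorinostat killing in resistant colon cancer cells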 (primary screen). Cells: human HCT116-VR colon cancer cells, selected for vorinostat resistance. Reagent: siRNA pool against human genes, 40 nM siRNA pool. Timing: vorinostat for 24 h, read-out about 72 h after transfection. Treatment: vorinostat at 2.5 µM final. Detection: 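Two measures, CellTiter-Fluor viability and luminescent caspase 3/7 activity, each as fold change against same-plate mock wells, mean of duplicates, then screen-wide robust z-score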. Scale: viability robust z-score: higher = more viable cells than screen typical; caspase robust z-score: higher = more caspase 3/7 activity than screen typical. Rule for the call: 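a knock-down is a hit when classed RV1 or RV2 for lowered viability, or CA1 or CA2 for caspase activation; those lethal without drug were dropped; hits were retested singly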.
Shown is an unselected part of about 18,000 reagents tested. 450 of them (2.5%) count as active. 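Single biological run; no consistent viability z cut-off exists, so the class columns, not z-scores, define the calls.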 Entries without a mark were called inactive.

Target gene | viability hit class | caspase hit class | viability robust z-score | caspase robust z-score
SGSH | no change | no change | 0.16 | 1.12
CNPPD1 | no change | no change | 0.02 | 0
CAPSL | no change | no change | 0.13 | 0.2
NAV3 | no change | no change | 0.55 | -0.55
UBA5 | no change | no change | 0.62 | -0.41
ADSS1 | no change | no change | 0.1 | -0.82
HMGCLL1 | no change | no change | 0.7 | 2.33
FAIM | no change | no change | -0.45 | 1.97
KLC2 | no change | no change | -1.16 | -0.08
ZNF611 | no change | no change | -0.16 | 0.86
ADGRF1 | no change | no change | 0.57 | 0.08
KLHDC3 | no change (active) | CA2 (caspase activation) | 0.52 | 5.96
LOC653978 (retired record) | no change | no change | -0.4 | 4.4
C1orf159 | no change | no change | -0.77 | -0.38
RRAGC | no change | no change | -0.69 | 0.32
C12orf60 | no change | no change | 0.4 | 2.15
CILK1 | no change | no change | -0.78 | 0.98
SCN4B | no change | no change | 0.61 | -0.36
N4BP2L2 | no change | no change | -0.88 | 0.26
MAP3K4 | no change | no change | -0.39 | 0.86
ELOVL3 | no change | no change | 1.02 | 0.54
ID3 | no change | no change | 0.72 | 0.4
NSG1 | no change | no change | 0.76 | 2.81
